Our source for the binding values is patent US20030170807A1 (Johns Hopkins, published 2003).

Protein sequences, listed by entry. Tags and fused reporters are not part of them. Residues count along the entry.
UniProt P23385, residues 19-1199: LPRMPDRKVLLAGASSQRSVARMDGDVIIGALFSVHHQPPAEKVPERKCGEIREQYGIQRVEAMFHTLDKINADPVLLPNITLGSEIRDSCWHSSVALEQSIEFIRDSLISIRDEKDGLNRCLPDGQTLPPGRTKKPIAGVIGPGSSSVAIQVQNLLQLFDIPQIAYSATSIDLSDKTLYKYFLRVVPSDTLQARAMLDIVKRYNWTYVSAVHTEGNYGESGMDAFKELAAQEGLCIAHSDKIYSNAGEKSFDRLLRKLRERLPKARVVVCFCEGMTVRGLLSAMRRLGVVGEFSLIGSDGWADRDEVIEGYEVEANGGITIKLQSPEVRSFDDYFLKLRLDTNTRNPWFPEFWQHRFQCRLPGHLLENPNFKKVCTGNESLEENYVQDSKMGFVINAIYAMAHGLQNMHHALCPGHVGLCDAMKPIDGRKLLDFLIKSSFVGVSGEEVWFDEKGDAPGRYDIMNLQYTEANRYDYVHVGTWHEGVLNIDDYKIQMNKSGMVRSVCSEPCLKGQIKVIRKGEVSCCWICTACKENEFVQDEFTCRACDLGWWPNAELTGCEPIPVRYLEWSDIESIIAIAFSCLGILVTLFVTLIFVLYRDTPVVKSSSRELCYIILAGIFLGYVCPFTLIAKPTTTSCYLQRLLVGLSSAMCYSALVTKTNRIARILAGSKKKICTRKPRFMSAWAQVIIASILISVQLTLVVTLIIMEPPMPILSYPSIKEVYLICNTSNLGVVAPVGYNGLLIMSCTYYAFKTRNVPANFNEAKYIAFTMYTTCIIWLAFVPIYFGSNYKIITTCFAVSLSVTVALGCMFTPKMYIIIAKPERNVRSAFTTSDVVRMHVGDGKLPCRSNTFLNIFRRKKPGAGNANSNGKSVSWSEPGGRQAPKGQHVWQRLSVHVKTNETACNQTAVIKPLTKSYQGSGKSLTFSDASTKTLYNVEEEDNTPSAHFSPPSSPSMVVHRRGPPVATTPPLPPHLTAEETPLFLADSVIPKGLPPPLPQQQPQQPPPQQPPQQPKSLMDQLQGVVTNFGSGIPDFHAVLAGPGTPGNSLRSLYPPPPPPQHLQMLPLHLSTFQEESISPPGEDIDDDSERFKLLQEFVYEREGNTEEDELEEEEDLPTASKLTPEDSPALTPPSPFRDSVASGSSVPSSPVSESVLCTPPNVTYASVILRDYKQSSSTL

This experiment addresses mGluR1α, native, from rat cerebellum/brain extracts (rat) (UniProt P23385). Nature of the experiment: co-immunoprecipitation from adult rat cerebellum extracts.

Results are given in words; binding and its absence hold for the method and conditions named. Binding seen in cells or lysates may run through a third protein. Some binding calls cover weakened binding; strength is not graded here.

B1: Homer 3, native, from rat brain extracts (protein, UniProt Q9Z2X5 1-358, looked up)
chain: MSTAREQPIFSTRAHVFQIDPATKRNWIPAGKHALTVSYFYDATRNVYRIISIGGAKAIINSTVTPNMTFTKTSQKFGQWADSRANTVYGLGFGSEQQLTQFAEKFQEVKEAARLAREKSQDGGELTSTALAMASHQVPPSPLVSTNGPEEKLFRSQSADAPGPTERERLKKMLSEGSVGEVQWEAEFFALQDSNQRLAGALREANAAATQWRQQLEVQRAEAEHLRQRVAELEAQVAAEPVRAGEKEATSQSVEQLEARVQTKDQEIQTLKNQSTGPREAPDTAEREETQQQVQDLETRNAELEQQLRAMESNLEEARAERERARAEVGRAAQLLDVRLFELSELREGLARLAEAAP
On to B1, for which the binding result is reported as “binds”.
